According to US20130224191A1, “NOTUM PROTEIN MODULATORS AND METHODS OF USE” (priority 2010, published 2013):
Some results were stated once for a whole list of compounds, not compound by compound.

Molecular target: T1, Notum (Homo sapiens, UniProt Q6P988)
T1 sequence (Q6P988 20-496): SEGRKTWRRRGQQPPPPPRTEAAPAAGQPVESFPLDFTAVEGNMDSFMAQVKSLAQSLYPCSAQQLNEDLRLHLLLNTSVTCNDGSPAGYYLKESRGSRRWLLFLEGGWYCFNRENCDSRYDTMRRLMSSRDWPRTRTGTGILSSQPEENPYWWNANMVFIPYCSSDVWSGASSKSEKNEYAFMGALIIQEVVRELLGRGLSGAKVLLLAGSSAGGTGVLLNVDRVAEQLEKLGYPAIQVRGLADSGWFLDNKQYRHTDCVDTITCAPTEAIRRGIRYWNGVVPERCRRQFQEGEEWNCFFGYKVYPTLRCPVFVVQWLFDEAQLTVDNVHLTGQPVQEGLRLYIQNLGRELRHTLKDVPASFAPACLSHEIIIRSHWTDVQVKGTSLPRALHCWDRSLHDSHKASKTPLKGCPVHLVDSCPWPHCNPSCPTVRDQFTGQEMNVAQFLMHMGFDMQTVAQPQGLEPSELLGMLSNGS
Test: Neutralization of human Notum activity in 293.TCF luciferase assay
Type: cell-based
Set-up: 8x-His; Strep-tag II; IgK signal peptide/leader of the pSEC-CAG vector (N); made in house; host or cells: HEK293T (adherent) / suspension 293 cells
Conditions: antibody 10 μg/mL
Experimental: Using the 293.TCF cells described above, supernatants from hybridomas and/or purified antibodies shown to bind Notum by ELISA assays (Example 9) were screened for their ability to neutralize hNotum-His or hNotum-Fc activity as follows. 2.5×10^4 293.TCF cells were plated per well of a 96-well tissue culture plate in 50 μL of serum-free medium. After 23 hours of serum starvation, 10 μL of DMEM+0.2% FBS containing various Notum proteins at various concentrations were mixed with either 15 μL of supernatant from the hybridoma, or 15 μL of purified antibody at various concentrations, and allowed to incubate for 5 minutes at room temperature. The 25 μL antibody:Notum mixture was then added to the 293.TCF cells. After 1 hour, 25 μL of Wnt3A or control L-cell CM were added to each well. Eighteen hours after addition of CM, 100 μL of One-Glo solution (ProMega Corp.) was added to each well. The contents of each well were then mixed thoroughly to lyse the cells, 100 μL of lysate transferred to black 96-well plates, and the luminescence read after 5 minutes. […]

B1: SC2.D2.2 (antibody, V domains shown)
VH: DVQLVESGGGLVQPGGSRKISCAASGFTFSSYGMHWVRQAPEKGLEWVAYISSSTVTTYYADTVKGRFTISRDNANNTLFLQMTSLRSEDTAMYYCSRQNWDGGYFDVWGAGTTVTVSS
VL: DIVLTQSLASLAVSLGQRATISCRASKSVSSSGYSYMHWYQQKPGQPPKLLIYLASNLESGVPARFSGSGSGTDFTLNIHPVEEEDAATYYCQHSRALPLTFGAGTKLELKR
notes: also called murine SC2.D2.2
B1 was tested, and the Notum inhibition was “greater than 80%”.
